From article PMC4148261
These are yes or no findings as the source states them, for the method shown. Some results given as binding are weak or reduced against the parent protein; the word gives no strength.

Chains of the proteins cited; added tags and fusions are not shown.
UniProt P0DMV8: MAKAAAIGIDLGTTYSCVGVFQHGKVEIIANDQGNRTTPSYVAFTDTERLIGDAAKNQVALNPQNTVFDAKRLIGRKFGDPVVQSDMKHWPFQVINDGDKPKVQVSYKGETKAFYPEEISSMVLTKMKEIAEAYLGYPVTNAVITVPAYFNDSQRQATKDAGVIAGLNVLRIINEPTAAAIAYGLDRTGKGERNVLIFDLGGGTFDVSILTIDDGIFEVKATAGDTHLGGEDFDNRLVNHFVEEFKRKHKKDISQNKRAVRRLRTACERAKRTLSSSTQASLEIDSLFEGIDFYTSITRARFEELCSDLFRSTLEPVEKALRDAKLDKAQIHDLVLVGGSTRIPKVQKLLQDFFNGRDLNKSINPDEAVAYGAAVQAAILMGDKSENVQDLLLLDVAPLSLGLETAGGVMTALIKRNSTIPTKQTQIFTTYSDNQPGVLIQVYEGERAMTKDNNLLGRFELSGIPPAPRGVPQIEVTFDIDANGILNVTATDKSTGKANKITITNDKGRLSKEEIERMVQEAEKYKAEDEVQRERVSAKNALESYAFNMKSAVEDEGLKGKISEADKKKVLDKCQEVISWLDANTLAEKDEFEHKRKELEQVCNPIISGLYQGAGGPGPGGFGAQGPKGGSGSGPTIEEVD
UniProt Q61696: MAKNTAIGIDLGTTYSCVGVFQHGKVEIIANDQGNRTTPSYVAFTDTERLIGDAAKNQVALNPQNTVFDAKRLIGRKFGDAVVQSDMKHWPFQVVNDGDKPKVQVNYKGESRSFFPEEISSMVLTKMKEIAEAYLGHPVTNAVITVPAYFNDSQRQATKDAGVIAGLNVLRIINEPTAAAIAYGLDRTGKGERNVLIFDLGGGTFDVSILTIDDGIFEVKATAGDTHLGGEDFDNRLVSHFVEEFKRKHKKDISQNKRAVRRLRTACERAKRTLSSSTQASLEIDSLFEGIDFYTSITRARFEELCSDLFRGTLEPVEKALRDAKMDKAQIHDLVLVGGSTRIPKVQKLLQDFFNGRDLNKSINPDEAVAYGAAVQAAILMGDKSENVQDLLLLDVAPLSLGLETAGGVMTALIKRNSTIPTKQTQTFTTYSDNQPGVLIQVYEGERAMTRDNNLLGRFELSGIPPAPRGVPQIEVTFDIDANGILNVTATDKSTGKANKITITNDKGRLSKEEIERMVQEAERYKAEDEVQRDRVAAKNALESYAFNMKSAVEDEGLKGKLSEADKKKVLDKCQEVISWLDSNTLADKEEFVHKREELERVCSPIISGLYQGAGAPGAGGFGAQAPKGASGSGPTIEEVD

Columns and labels:
[1] = target: membrane-bound form of Hsp70 (memHsp70) on human tumor cell lines (human (endogenous in human tumor cell lines)) (UniProt P0DMV8); assay: flow cytometry on cells; viable human tumor cell lines (2x10^5 cells) incubated with CF-labeled TPP 30 min at 4°C, two washes, propidium iodide negative cells analysed; only the binder purified
[2] = target: membrane Hsp70 on mouse 4T1 wild type breast cancer cells (mouse (endogenous in 4T1)) (UniProt Q61696); assay: flow cytometry on cells; viable 4T1 wt cells stained with CF-labeled TPP, 4T1 Hsp70-/- knock-out cells as control; only the binder purified

B1: carboxy-fluorescein (CF-) labeled 14-mer tumor penetrating peptide (TPP) (peptide)
peptide: TKDNNLLGRFELSG
modifications: carboxyfluorescein (CF) label, position not stated
For B1, the binding [1] was “binds” and the binding [2] was “binds”.
